# Test results as given in the supplement of paper PMC8728848.
# The list shows a part of the results.
# Columns and labels:
# Assay in all cases: glycan array binding signal (z-score within array); higher = stronger binding
# Details in all cases: glycan notation: IUPAC condensed, linker removed
# [1] = biological target: Neu5Ac(a2-6)Gal(b1-4)GlcNAc(b1-2)Man(a1-3)Man(b1-4)GlcNAc(b1-4)GlcNAc
# Method in brief: (§1)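 The Consortium for Functional Glycomics database supplied 3228 glycan arrays, of which those lacking an available protein sequence were dropped. The binding signal, a within-array Z-score, was averaged across arrays of the same protein sequence and across linkers. Negative scores can be read as non-binding.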
# [2] = biological target: Neu5Ac(a2-6)Gal(b1-4)GlcNAc(b1-2)Man(a1-3)[Gal(b1-4)GlcNAc(b1-2)Man(a1-6)]Man(b1-4)GlcNAc(b1-4)GlcNAc
# Method in brief: as §1
# [3] = biological target: Neu5Ac(a2-6)Gal(b1-4)GlcNAc(b1-2)Man(a1-3)[GlcNAc(b1-2)Man(a1-6)]Man(b1-4)GlcNAc(b1-4)GlcNAc
# Method in brief: as §1
# [4] = biological target: Neu5Ac(a2-6)Gal(b1-4)GlcNAc(b1-2)Man(a1-3)[GlcNAc(b1-2)Man(b1-4)GlcNAc(b1-2)Man(a1-6)]Man(b1-4)GlcNAc(b1-4)GlcNAc
# Method in brief: as §1
# [5] = biological target: Neu5Ac(a2-6)Gal(b1-4)GlcNAc(b1-2)Man(a1-3)[Man(a1-6)]Man(b1-4)GlcNAc(b1-4)GlcNAc
# Method in brief: as §1
# [6] = biological target: Neu5Ac(a2-6)Gal(b1-4)GlcNAc(b1-2)Man(a1-3)[Neu5Ac(a2-6)Gal(b1-4)GlcNAc(b1-2)Man(a1-6)]Man(b1-4)GlcNAc(b1-4)GlcNAc
# Method in brief: as §1
# [7] = biological target: Neu5Ac(a2-6)Gal(b1-4)GlcNAc(b1-2)Man(a1-6)Man(b1-4)GlcNAc(b1-4)GlcNAc
# Method in brief: as §1
# [8] = biological target: Neu5Ac(a2-6)Gal(b1-4)GlcNAc(b1-2)Man(a1-6)[Gal(b1-4)GlcNAc(b1-2)Man(a1-3)]Man(b1-4)GlcNAc(b1-4)GlcNAc
# Method in brief: as §1
# [9] = biological target: Neu5Ac(a2-6)Gal(b1-4)GlcNAc(b1-2)Man(a1-6)[GlcNAc(b1-2)Man(a1-3)]Man(b1-4)GlcNAc(b1-4)GlcNAc
# Method in brief: as §1
# [10] = biological target: Neu5Ac(a2-6)Gal(b1-4)GlcNAc(b1-2)Man(a1-6)[Man(a1-3)]Man(b1-4)GlcNAc(b1-4)GlcNAc
# Method in brief: as §1
# [11] = biological target: Neu5Ac(a2-6)Gal(b1-4)GlcNAc(b1-3)Gal(b1-3)GlcNAc
# Method in brief: as §1
# [12] = biological target: Neu5Ac(a2-6)Gal(b1-4)GlcNAc(b1-3)Gal(b1-4)GlcNAc
# Method in brief: as §1
# [13] = biological target: Neu5Ac(a2-6)Gal(b1-4)GlcNAc(b1-3)Gal(b1-4)GlcNAc(b1-3)Gal(b1-4)GlcNAc
# Method in brief: as §1
# [14] = biological target: Neu5Ac(a2-6)Gal(b1-4)GlcNAc(b1-3)Gal(b1-4)[Fuc(a1-3)]GlcNAc(b1-3)Gal(b1-4)[Fuc(a1-3)]GlcNAc
# Method in brief: as §1
# [15] = biological target: Neu5Ac(a2-6)Gal(b1-4)GlcNAc(b1-3)GalNAc
# Method in brief: as §1
# [16] = biological target: Neu5Ac(a2-6)Gal(b1-4)GlcNAc6S
# Method in brief: as §1
# Neu5Ac(a2-6)GalNAc = biological target: Neu5Ac(a2-6)GalNAc
# Method in brief: as §1
# [17] = biological target: Neu5Ac(a2-6)GalNAc(b1-4)GlcNAc
# Method in brief: as §1
# [18] = biological target: Neu5Ac(a2-6)GlcNAc(b1-4)GlcNAc
# Method in brief: as §1
# [19] = biological target: Neu5Ac(a2-6)GlcNAc(b1-4)GlcNAc(b1-4)GlcNAc
# Method in brief: as §1
# Neu5Ac(a2-8)Neu5Ac = biological target: Neu5Ac(a2-8)Neu5Ac
# Method in brief: as §1
# [20] = biological target: Neu5Ac(a2-8)Neu5Ac(a2-3)Gal(b1-4)Glc
# Method in brief: as §1
# [21] = biological target: Neu5Ac(a2-8)Neu5Ac(a2-3)[GalNAc(b1-4)]Gal(b1-4)Glc
# Method in brief: as §1
# [22] = biological target: Neu5Ac(a2-8)Neu5Ac(a2-8)Neu5Ac
# Method in brief: as §1
# [23] = biological target: Neu5Ac(a2-8)Neu5Ac(a2-8)Neu5Ac(a2-3)Gal(b1-4)Glc
# Method in brief: as §1
# [24] = biological target: Neu5Ac(a2-8)Neu5Ac(a2-8)Neu5Ac(a2-3)[GalNAc(b1-4)]Gal(b1-4)Glc
# Method in brief: as §1
# [25] = biological target: Neu5Ac(a2-8)Neu5Ac(a2-8)Neu5Ac(a2-8)Neu5Ac(a2-3)[GalNAc(b1-4)]Gal(b1-4)Glc
# Method in brief: as §1
# [26] = biological target: Neu5Ac(b2-6)Gal(b1-4)GlcNAc
# Method in brief: as §1
# Neu5Ac(b2-6)GalNAc = biological target: Neu5Ac(b2-6)GalNAc
# Method in brief: as §1
# [27] = biological target: Neu5Ac9Ac(a2-3)Gal(b1-3)GlcNAc
# Method in brief: as §1
# [28] = biological target: Neu5Ac9Ac(a2-3)Gal(b1-4)GlcNAc
# Method in brief: as §1
# [29] = biological target: Neu5Ac9Ac(a2-6)Gal(b1-4)GlcNAc
# Method in brief: as §1
# [30] = biological target: Neu5Gc(a2-3)Gal(b1-3)GlcNAc
# Method in brief: as §1
# [31] = biological target: Neu5Gc(a2-3)Gal(b1-3)[Fuc(a1-4)]GlcNAc
# Method in brief: as §1
# Neu5Gc(a2-3)Gal(b1-4)Glc = biological target: Neu5Gc(a2-3)Gal(b1-4)Glc
# Method in brief: as §1
# [32] = biological target: Neu5Gc(a2-3)Gal(b1-4)GlcNAc
# Method in brief: as §1
# [33] = biological target: Neu5Gc(a2-3)Gal(b1-4)[Fuc(a1-3)]GlcNAc
# Method in brief: as §1
# [34] = biological target: Neu5Gc(a2-6)Gal(b1-4)GlcNAc
# Method in brief: as §1
# Neu5Gc(a2-6)GalNAc = biological target: Neu5Gc(a2-6)GalNAc
# Method in brief: as §1
# [35] = biological target: Neu5Gc(b2-6)Gal(b1-4)GlcNAc
# Method in brief: as §1
binder,measurement,setting,value
"CREG (Mus musculus), O88668 (protein) MAARAPELARSLLAALLAPALVALLVSPASGRGGRDHGDWDVDRRLPPLPPREDGPRVARFVTHVSDWGSLATISTIKEVRGWPFADIISISDGPPGEGTGEPYMYLSPLQQAVSDLQENPEATLTMSLAQTVYCRNHGFDPQSPLCVHIMMSGTVTKVNKTEEDYARDSLFVRHPEMKHWPSSHNWFFAKLKISRIWVLDYFGGPKVVTPEEYFNVTLQ",glycan array binding signal (z-score),[1],1.54
same,glycan array binding signal (z-score),[2],-0.325
same,glycan array binding signal (z-score),[3],-0.763
same,glycan array binding signal (z-score),[4],0.109
same,glycan array binding signal (z-score),[5],0.369
same,glycan array binding signal (z-score),[6],0.505
same,glycan array binding signal (z-score),[7],-0.935
same,glycan array binding signal (z-score),[8],0.753
same,glycan array binding signal (z-score),[9],0.127
same,glycan array binding signal (z-score),[10],-1.28
same,glycan array binding signal (z-score),[11],-0.608
same,glycan array binding signal (z-score),[12],0.227
same,glycan array binding signal (z-score),[13],0.834
same,glycan array binding signal (z-score),[14],0.784
same,glycan array binding signal (z-score),[15],0.864
same,glycan array binding signal (z-score),[16],-1.25
same,glycan array binding signal (z-score),Neu5Ac(a2-6)GalNAc,-1.13
same,glycan array binding signal (z-score),[17],-1.24
same,glycan array binding signal (z-score),[18],-0.318
same,glycan array binding signal (z-score),[19],0.386
same,glycan array binding signal (z-score),Neu5Ac(a2-8)Neu5Ac,-0.211
same,glycan array binding signal (z-score),[20],-0.554
same,glycan array binding signal (z-score),[21],-0.305
same,glycan array binding signal (z-score),[22],-0.452
same,glycan array binding signal (z-score),[23],0.214
same,glycan array binding signal (z-score),[24],-0.505
same,glycan array binding signal (z-score),[25],-0.964
same,glycan array binding signal (z-score),[26],-0.415
same,glycan array binding signal (z-score),Neu5Ac(b2-6)GalNAc,0.312
same,glycan array binding signal (z-score),[27],-1.01
same,glycan array binding signal (z-score),[28],-0.288
same,glycan array binding signal (z-score),[29],1.57
same,glycan array binding signal (z-score),[30],0.557
same,glycan array binding signal (z-score),[31],-0.132
same,glycan array binding signal (z-score),Neu5Gc(a2-3)Gal(b1-4)Glc,-0.929
same,glycan array binding signal (z-score),[32],0.882
same,glycan array binding signal (z-score),[33],-0.553
same,glycan array binding signal (z-score),[34],-0.759
same,glycan array binding signal (z-score),Neu5Gc(a2-6)GalNAc,0.064
same,glycan array binding signal (z-score),[35],0.145

# Quoted at random: 3 entries already listed.
binder,measurement,setting,value
"CREG (Mus musculus), O88668 (protein) MAARAPELARSLLAALLAPALVALLVSPASGRGGRDHGDWDVDRRLPPLPPREDGPRVARFVTHVSDWGSLATISTIKEVRGWPFADIISISDGPPGEGTGEPYMYLSPLQQAVSDLQENPEATLTMSLAQTVYCRNHGFDPQSPLCVHIMMSGTVTKVNKTEEDYARDSLFVRHPEMKHWPSSHNWFFAKLKISRIWVLDYFGGPKVVTPEEYFNVTLQ",glycan array binding signal (z-score),[10],-1.28
same,glycan array binding signal (z-score),[8],0.753
same,glycan array binding signal (z-score),[33],-0.553
